Publication PMC11315385
These are yes or no findings as the source states them, for the method shown. Binding seen in cells or lysates may run through a third protein. Some results given as binding are weak or reduced against the parent protein; the word gives no strength.

Chains of the proteins cited; added tags and fusions are not shown.
UniProt Q9Y5K5: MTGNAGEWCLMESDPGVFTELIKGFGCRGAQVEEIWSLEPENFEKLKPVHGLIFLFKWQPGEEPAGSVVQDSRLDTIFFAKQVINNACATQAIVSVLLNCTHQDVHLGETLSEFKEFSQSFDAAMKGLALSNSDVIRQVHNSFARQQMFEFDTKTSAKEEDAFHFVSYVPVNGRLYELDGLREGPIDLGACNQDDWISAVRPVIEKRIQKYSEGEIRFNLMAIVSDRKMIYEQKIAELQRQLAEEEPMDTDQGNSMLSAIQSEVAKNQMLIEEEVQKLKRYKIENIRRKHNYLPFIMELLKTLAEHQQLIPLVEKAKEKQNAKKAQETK

Target: Ubiquitin C-terminal hydrolase-L5 (human (endogenous in CAOV3)) (UniProt Q9Y5K5)
Test: co-IP; CAOV3 cells lysed in IP-lysis buffer; supernatant incubated overnight with specific antibodies at 4°C, then protein A/G beads for 3 h; captured proteins analysed by western blotting

B1: Annexin A8 (protein, UniProt P13928 1-327)
chain: MAWWKSWIEQEGVTVKSSSHFNPDPDAETLYKAMKGIGTNEQAIIDVLTKRSNTQRQQIAKSFKAQFGKDLTETLKSELSGKFERLIVALMYPPYRYEAKELHDAMKGLGTKEGVIIEILASRTKNQLREIMKAYEEDYGSSLEEDIQADTSGYLERILVCLLQGSRDDVSSFVDPGLALQDAQDLYAAGEKIRGTDEMKFITILCTRSATHLLRVFEEYEKIANKSIEDSIKSETHGSLEEAMLTVVKCTQNLHSYFAERLYYAMKGAGTRDGTLIRNIVSRSEIDLNLIKCHFKKMYGKTLSSMIMEDTSGDYKNALLSLVGSDP
  binding: binds
